Measurements from the supplement of paper PMC3334620.
Whole data set: some 33,000 sequences, median “E-score (-0.5 to 0.5)” near -0.016, cut for the highest 2% near 0.3. Some of the results follow.

Molecular target: T1, Yer184c (UniProt P39961)
T1 sequence: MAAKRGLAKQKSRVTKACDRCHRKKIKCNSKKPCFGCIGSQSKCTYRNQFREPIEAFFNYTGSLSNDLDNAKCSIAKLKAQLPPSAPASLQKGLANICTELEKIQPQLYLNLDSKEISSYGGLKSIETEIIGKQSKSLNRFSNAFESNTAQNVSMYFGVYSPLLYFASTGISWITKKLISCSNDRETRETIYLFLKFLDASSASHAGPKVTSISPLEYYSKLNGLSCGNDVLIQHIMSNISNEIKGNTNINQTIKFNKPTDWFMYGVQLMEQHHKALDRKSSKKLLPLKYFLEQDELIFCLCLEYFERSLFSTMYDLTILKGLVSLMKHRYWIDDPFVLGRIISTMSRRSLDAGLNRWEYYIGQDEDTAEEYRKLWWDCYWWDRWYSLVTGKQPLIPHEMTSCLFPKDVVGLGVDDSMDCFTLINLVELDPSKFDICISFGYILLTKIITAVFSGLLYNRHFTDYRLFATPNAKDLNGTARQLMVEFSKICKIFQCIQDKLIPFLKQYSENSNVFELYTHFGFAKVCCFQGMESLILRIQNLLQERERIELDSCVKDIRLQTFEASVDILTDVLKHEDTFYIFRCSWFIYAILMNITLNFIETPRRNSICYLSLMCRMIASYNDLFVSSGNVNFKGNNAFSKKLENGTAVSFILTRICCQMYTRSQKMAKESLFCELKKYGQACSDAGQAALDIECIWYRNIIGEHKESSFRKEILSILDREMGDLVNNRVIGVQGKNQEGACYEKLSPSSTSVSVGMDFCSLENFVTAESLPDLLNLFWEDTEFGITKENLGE
Assay: PBM E-score (8-mer binding enrichment) (E-score (-0.5 to 0.5)); higher = stronger / more preferred TF binding
Settings: protein concentration: 100 nM; construct: GST-full length
Summary of the method: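 Universal all-10-mer Agilent arrays, fresh or stripped once, were converted to double-stranded form by primer extension. GST-tagged yeast transcription factors from PURExpress in vitro transcription/translation, full-length or DNA-binding domain only, were applied at about 100-200 nM and detected with fluorescent anti-GST. After masliner normalisation, the Universal PBM Analysis Suite scored each ungapped eight-base word together with its reverse complement by E-score.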

Sequence	PBM E-score
TCCTACAA	0.0981
AGTCGCAG	-0.0702
ACCAGGCT	-0.247
GGTTGGAA	-0.0213
TGCCCACA	-0.241
GCCCCGTA	-0.292
GGCCACTA	-0.192
CAACCCAA	-0.114
ATGCACGC	0.0543
CGTACAAC	0.0683
GTCCTGCA	-0.122
ACATTTCG	-0.0595
CCCCCCGA	-0.282
ATGGTCCG	0.259
CAAGAAAC	0.21
ACATCAGT	-0.062
ATGCGGGC	-0.23
CGGTGTTA	0.171
ACGGGGTG	-0.181
TGAATTAA	0.222
AGATTGGG	0.0343
CCTTCACC	-0.14
CAACTATA	-0.0575
ACCGTCCA	0.0203
AGGAATTC	-0.0648

Sequence	PBM E-score
AAAACGCT	-0.122
ATGCAGCA	0.0105
CAACGGTG	-0.266
CACCGCGA	-0.247
ACGTCAAT	-0.246
AAAATTTC	0.149
ACTAGGTC	0.015
GATCGCCC	-0.156
AATGTTTA	-0.00557
CGATTTAC	0.0316
ATTACCCA	0.071
TCTTATCA	0.197
ACGAGCCG	0.22
CGACGGCC	0.0317
ACAAGCTA	-0.0434
AAACTCAG	-0.00485
CGCCCGAA	0.0404
CCACCATC	-0.272
ATTCCATA	0.147
TGGGCTAA	-0.147
AGGAGCCC	-0.185
AAGTCGAC	0.251
AACGGTCG	0.0793
CCTCGGCG	0.355
AAAACACA	0.119

Sequence	PBM E-score
AAAAAAAG	0.143
CCTCAGTC	-0.114
GATGAAAA	0.142
CTTCAACA	0.0953
CTTCTTAA	0.0941
AAATGCTC	-0.0216
AGGGCGCG	-0.0851
AGCAATTC	-0.00487
ACTCGGTA	-0.00121
AAGATCAG	-0.0697
TAGCCCTA	-0.174
CCTATTCG	-0.00975
CTCTGATA	0.0668
CGCGCAGC	-0.0875
GAGCACGC	-0.0691
AAAGTCGA	-0.0507
AACACGCT	-0.177
AATCATAC	0.0932
ACCGTCTA	-0.119
CTGTGTCC	0.0636
CTTTTCTC	0.0363
ACTCTAGC	-0.204
ATAGAAAT	0.318
CGACTATC	-0.2
ATCCCCAA	-0.203

Sequence	PBM E-score
TAGGGCGA	-0.191
CAAGTCTA	-0.0527
TAATGAGA	-8e-05
CCTGGTCC	-0.252
AGTGATTA	0.1
AATCTGAC	-0.0139
CCCTCCGA	-0.0303
GGCTCTCA	-0.0818
CATACTTA	0.0423
CTTACGGC	0.061
CCGTCCTC	-0.151
AACCTTTA	-0.0862
AAACCGGA	0.306
GCTTTGCA	-0.132
CTGGCGCA	-0.272
AACACCCC	-0.138
CCAAGTAA	0.119
GTGCCCAC	-0.254
CTTTTAGA	0.0275
GACGAGTA	0.0407
AGAGTTAT	-0.0321
CCCCCGCC	-0.254
GACACAGC	0.0337
ACTTACGA	0.143
AGGGTGGA	-0.209

Sequence	PBM E-score
ATAGTATG	0.14
CAGTGTAG	0.0719
ATAACCTC	-0.045
CACCCGCC	0.15
CGGGAAGC	0.138
GGAACTAC	0.101
GAAAAACA	0.0622
TAGGAGGA	-0.134
CCCTGGCA	-0.241
ACCTCAAA	0.137
ATATATAT	0.336
GCTCACAA	0.0464
ATATCAAC	0.145
CGTCCAAC	-0.113
CTAGGCTC	-0.177
ACCGCGTG	0.0132
AAGACACA	0.0112
GTCCCGAA	0.0202
AAATATCT	0.163
CAGCATGA	-0.179
ACCGGGTA	0.0512
CGATGTCA	0.0416
CCATCATC	-0.0628
AACGCTAG	-0.0531
ACGTCTCT	0.0341

In a second layout: entries from further up.
Sequence | PBM E-score
TAGGAGGA | -0.134
ATATATAT | 0.336
GCTCACAA | 0.0464
ATATCAAC | 0.145
AAGACACA | 0.0112
ACGTCTCT | 0.0341

(listing goes on)

Sequence	PBM E-score
TCCAGGCA	-0.15
AGAACGAG	0.0599
ACGTAGAT	-0.0898
GATTCCAC	0.259
AGGACCAC	-0.14
CACAAAGA	0.19
GGCTTCGA	-0.0295
GTCCTTTA	0.0142
CGCGCCAG	0.0148
GGCGGGAC	-0.0223
ACCTCGTC	-0.0978
GTGCCTCA	-0.15
GGTGGAAA	-0.179
GGATAATA	0.194
AAAGATTC	0.213
AAGGTGAC	-0.0789
GTCGCAAC	-0.133
CTAACATA	0.116
CACGCGGC	0.00537
CGATGGGC	-0.11
CAATACTC	0.0583
ATGAGCTC	-0.0459
CTCTGTTC	0.0192
CTAGAAAA	0.0997
GGTAAAAA	0.198

Sequence	PBM E-score
TCTGATAA	-0.0518
TATCCAAA	0.109
GCTAAAGA	0.0684
AAGGACAC	0.03
ACTGTCGC	-0.13
GAAGCTCC	0.0674
CCCAAGCA	-0.115
CATACAGC	-0.253
GCTCCAGC	-0.0486
AGTCGTAA	0.105
GCCACGGC	0.0819
GGGAGCAA	-0.223
GGCACGGA	0.168
CCTCTCTA	-0.316
CTCTTGTA	-0.00465
GCGCGTGA	0.0968
AAAACCAC	-0.00328
GGGTACAC	-0.156
ACACTAGG	-0.0387
CTCCATAC	0.02
GACGCTTA	-0.148
CATCCTAC	-0.108
AGCCACTG	-0.0745
GAATCTAA	0.164
AGCTGGCC	-0.0332

Sequence	PBM E-score
GCGATTTA	0.0609
GATAGGGC	-0.0906
AAAGGAAT	0.0566
CCCCCGAA	-0.167
GCCGGAAA	0.426
TAGTCACA	-0.133
CTAAGGAG	-0.258
CCCGTATC	-0.0586
GAGCCTCA	-0.168
GGTTGCAC	-0.0434
ACGGCTAT	0.138
GGGCTCGA	-0.151
AAAATTGG	-0.138
CCGTTGTC	0.199
GAATTAAC	0.23
CAGTAGAC	0.0126
GGTGGTTA	-0.029
CTGGTTGC	0.114
AACACAGA	0.188
CACGGCGC	0.0977
CCATCGTC	-0.0348
CACTGGTA	-0.118
GGTACACC	-0.125
AATAGAAT	0.123
ATCACTAG	-0.254

Sequence	PBM E-score
GTACGCAC	-0.27
GAGTCCAA	-0.046
CAGCTGTA	-0.0331
CACCGGTA	0.159
TATTCGAA	-0.106
AATGTACT	0.0607
CTAGTCCC	-0.228
TGACGGCA	-0.0984
CAACAGAC	0.0137
CAGAAAAC	0.00421
ACGGCTCG	0.21
GTCAACAC	0.198
CTGACTTA	0.0522
ACTTCTCT	-0.106
AATTGCCC	0.00762
CTTACATC	0.0606
GAGACGGA	0.0834
TACCGTGA	0.0457
ACTGTCAA	-0.0973

Shown in CSV form: part of the list above
Sequence,PBM E-score
GGTAAAAA,0.198
TCTGATAA,-0.0518

Some of the entries so far, comma-delimited.
Sequence,PBM E-score
CACCGGTA,0.159
ACGGCTCG,0.21
TACCGTGA,0.0457
